At least one structure is not confirmed: it was looked up by name or label, or the drawing left a doubt.
Test system: HBV
Experiment: Southern blot analysis of HBV core particle-associated viral DNA
Type: cell-based
Conditions: Southern blotting, FIG. 2A

COC1=C(OC)C(O)C(C/C=C(\C)CC/C=C(\C)CCC=C(C)C)C(C)C1=O (stereo not shown) [Compound 1, 4-hydroxy-2,3-dimethoxy-6-methyl-5-(3,7,11-trimethyldodeca-2,6,10-trienyl)cyclohex-2-enone]
HBV replicative intermediates (relaxed-circular, linear and single-stranded DNA): significantly suppressed

From patent publication US20230190680A1, “METHODS AND COMPOSITIONS FOR TREATING AN RNA VIRUS INDUCED DISEASE” (Golden Biotechnology Corporation, priority 2020, published 2023)
